Source: patent US20130045922A1
These are yes or no findings as the source states them, for the method shown. Some results given as binding are weak or reduced against the parent protein; the word gives no strength.

Protein sequences, listed by entry. Tags and fused reporters are not part of them. Lines headed by an entry give the natural chain unless they say otherwise; changes in a name come on top. Chains listed by the source or under a name are the forms on record and can include a tag or linker.
hVEGF (P15692, form named): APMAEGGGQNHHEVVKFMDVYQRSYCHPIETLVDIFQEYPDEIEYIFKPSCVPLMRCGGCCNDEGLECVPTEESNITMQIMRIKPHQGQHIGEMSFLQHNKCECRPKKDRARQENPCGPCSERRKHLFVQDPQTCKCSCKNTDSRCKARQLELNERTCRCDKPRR

Experiments:
hVEGF (human) [1] = molecular target: hVEGF (human) (UniProt P15692); assay: ELISA and dot blot with synthesized peptides
hVEGF (human) [2] = molecular target: hVEGF (human) (UniProt P15692); assay: spot peptide array probed with hVEGF (FIG. 1B legend)
hVEGF (human) [3] = molecular target: hVEGF (human) (UniProt P15692); assay: Table 1, column 'VEGF binding' (spot peptide array with hVEGF; ELISA and dot blot)

Measured: binding

B1: Peptide #122 (…) (peptide)
peptide: ITNNTSSVIIEE
binds: hVEGF (human) [1] | hVEGF (human) [2] | hVEGF (human) [3]

B2: Peptide #42 (…) (peptide)
peptide: PNIIPVLDEIKS
binds: hVEGF (human) [1] | hVEGF (human) [2] | hVEGF (human) [3]

B3: Peptide #640 (…) (peptide)
peptide: CSFAYDLEAKANSLPPGNLRN
binds: hVEGF (human) [1] | hVEGF (human) [2] | hVEGF (human) [3]

B4: Peptide #77 (…) (peptide)
peptide: LCGVCGYDRHAT
binds: hVEGF (human) [1] | hVEGF (human) [2] | hVEGF (human) [3]

B5: Peptide #237 (…) (peptide)
peptide: DRVQRQTTTVVA
binds: hVEGF (human) [1] | hVEGF (human) [2] | hVEGF (human) [3]

B6: Peptide #3 (…) (peptide)
peptide: LCGNSFSGGQPS
binds: hVEGF (human) [1] | hVEGF (human) [2] | hVEGF (human) [3]
